Experimental data taken from publication PMC13581288, “The chromokinesin Kid (KIF22) forms a homodimer, moves processively along microtubules, and transports double-stranded DNA” (eLife, 2024).
No signal at the amounts used counts as a negative. Protein sequences can lack the tags named with them. For some assays here: For at least one entry, the source does not settle the construct or the ends of the probe. For some assays here: At least one verdict rests on a figure or table, not on a statement of the authors.

Assays:
XKid delta-tail = target: T1, XKid delta-tail (UniProt Q9I869); assay: single-molecule TIRF DNA transport on microtubules; settings: transport abolished (transport read-out), TIRF single-molecule motility assay on microtubules, assay buffer, recombinant protein, label: 5'-Cy3 on both strands, only the site is given
T1 sequence (looked up, limits assumed): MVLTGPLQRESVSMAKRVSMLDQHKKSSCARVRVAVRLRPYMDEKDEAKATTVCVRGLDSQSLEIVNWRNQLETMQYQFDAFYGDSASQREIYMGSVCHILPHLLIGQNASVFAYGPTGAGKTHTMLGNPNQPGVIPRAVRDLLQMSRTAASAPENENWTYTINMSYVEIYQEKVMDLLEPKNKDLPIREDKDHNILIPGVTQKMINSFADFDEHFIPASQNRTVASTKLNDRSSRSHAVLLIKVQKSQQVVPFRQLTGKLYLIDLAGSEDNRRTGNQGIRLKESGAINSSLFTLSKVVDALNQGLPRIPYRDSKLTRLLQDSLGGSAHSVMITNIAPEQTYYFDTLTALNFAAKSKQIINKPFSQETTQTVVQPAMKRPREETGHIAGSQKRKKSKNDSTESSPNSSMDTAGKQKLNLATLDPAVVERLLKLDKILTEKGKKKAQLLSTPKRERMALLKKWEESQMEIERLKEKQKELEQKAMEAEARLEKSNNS

[1] = target: T2, XKid full-length (XKidFL-mScarlet) (UniProt Q9I869); assay: single-molecule TIRF DNA transport on microtubules; settings: ssDNA movement not driven (transport read-out), TIRF single-molecule motility assay on microtubules, assay buffer, recombinant protein, residues 1-651, label: 5'-Cy3, single-stranded DNA
T2 sequence (looked up): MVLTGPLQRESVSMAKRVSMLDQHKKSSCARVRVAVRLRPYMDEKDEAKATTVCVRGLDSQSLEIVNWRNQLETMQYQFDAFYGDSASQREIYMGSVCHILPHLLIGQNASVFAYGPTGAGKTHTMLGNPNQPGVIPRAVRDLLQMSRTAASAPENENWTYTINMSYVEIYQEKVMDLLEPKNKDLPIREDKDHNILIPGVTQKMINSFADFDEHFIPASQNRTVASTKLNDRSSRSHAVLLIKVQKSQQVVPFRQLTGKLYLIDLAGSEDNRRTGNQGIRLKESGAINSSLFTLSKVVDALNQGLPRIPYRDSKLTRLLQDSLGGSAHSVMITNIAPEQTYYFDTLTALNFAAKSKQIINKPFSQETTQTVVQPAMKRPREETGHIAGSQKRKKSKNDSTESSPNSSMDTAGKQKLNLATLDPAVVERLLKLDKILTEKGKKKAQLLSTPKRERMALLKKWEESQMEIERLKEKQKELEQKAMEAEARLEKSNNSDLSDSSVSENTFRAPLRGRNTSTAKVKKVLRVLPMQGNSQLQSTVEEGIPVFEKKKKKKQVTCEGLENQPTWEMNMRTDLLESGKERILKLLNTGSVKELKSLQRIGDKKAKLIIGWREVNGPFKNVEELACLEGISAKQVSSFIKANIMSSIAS

GAGAATCGCCGGTTGATAATCTTCCTAGTAGGTAGTATTGGTGTTGAGTCGCTCA / GAGAATCGCCGGTTGATAATCTTTGAGCGACTCAACACCAATACTACCTACTAGG [Cy3 dsDNA '100 bp' (oligos #1+#2)]
binding result (XKid delta-tail): no binding

GAGAATCGCCGGTTGATAATCTTCCTAGTAGGTAGTATTGGTGTTGAGTCGCTCA [Cy3 ssDNA (oligo #1)]
binding result [1]: no binding
